Experimental findings from article PMC6309736 are described below.

The target in this data set is T1, QsrR (His6-QsrR) (UniProt Q92L17).
T1 sequence (looked up): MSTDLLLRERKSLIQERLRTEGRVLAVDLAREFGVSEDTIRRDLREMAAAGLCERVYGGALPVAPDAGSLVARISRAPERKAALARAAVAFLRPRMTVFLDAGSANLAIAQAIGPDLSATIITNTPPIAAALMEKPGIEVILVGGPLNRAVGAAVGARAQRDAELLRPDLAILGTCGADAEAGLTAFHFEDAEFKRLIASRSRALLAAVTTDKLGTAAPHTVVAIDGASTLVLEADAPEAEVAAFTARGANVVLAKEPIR
The data set can be described thus: EMSA. To be noted: shift at 3.3 uM His6-QsrR, 0.005 nM probe, competed by ~100-fold unlabeled pexpR; DIG Gel Shift Kit 2nd Generation (Roche), per manufacturer; 0.005 nM labeled probe; pH and temperature not stated; recombinant protein; residues 1-260; protein details: His6 (pET28a); label: DIG; probe letters rebuilt from the primers and the genome.

Protein sequences can lack the tags named with them.

Take “ATGCGGCCGCCCACCTTGCGTGCCGGCAAAGCCGCGGGTGACGGCCTTTGCGTTCTTCCCAAAAAACGCGGTAGACGGGGCGGATCAGCGAGAAGGATCATCCGATACCATGGGAGGGTTGGCGGGATGATTCATCGTTAGCTATCTTGATGCCTCGACTCCGAGTTTTTGCAGGTTTCCTGCAAGACCGGGCGTGATATGAAGAATTATCGCGGTTGCAACATGAATGGCTTCTGAACGGCGTATTCACATGGCCTGGCGGGTTGCGCGGCGCGTTTTTGATTTGAGGATGCTCTGAATTCCG (double strand) [pexpR (expR promoter, R1)]”: the binding result is listed as “binds”.
